# Test results reported in patent publication US11286231B2, “Hydrogen-bonding compounds, compositions comprising the same, and methods of preparing and using the same” (Wake Forest University Health Sciences, priority 2016, dated 2022).
# At least one compound was matched to its structure with a doubt left.
# Tests used:
# [1] = Oscillatory shear-stress sweep test, shear elastic modulus G′ of HyStem hydrogels; assay type: physicochemical; conditions: HyStem + 1.5% w/v compound solution, n=3
# Method: (§1) To a 2 mL centrifuge tube, 200 μL of Heprasil® solution (1% w/v solution, thiolated HA component of HyStem kit), 200 μL of Gelin-S® solution (1% w/v, thiolated gelatin component of HyStem kit), 50 μL of Extralink® solution (2% w/v, polyethylene glycol diacrylate component of HyStem kit), and 50 μL of a modular catecholamine (C1.1) or amide […] solutions (0.25%-1.5% w/v, see Rheology section for specifics) were added and mixed by softly pipetting the solution up and down carefully to avoid creating bubbles. For control experiments the modular catecholamide or amine solutions were replaced with an equivalent volume of sterile deionized water. For rheology or cell culture studies, the reaction mixture was placed into wells of an appropriate size and exposed to UV radiation (˜222 nm) for 1-5 seconds.
# A Discovery HR-2 Rheometer (TA Instruments, New Castle, Del.) with an 8 mm geometry was used to collect the rheological data. […] Average shear elastic modulus, G′, values were determined for each condition.
# Shear-stress sweep tests (0.6-10.0 Pa, 1.0 Hz, 25° C.) were applied to hydrogels containing varying solution concentrations (0%, 1.0%, and 1.5% WAV) of modular amine compounds, C1.1/C1.2. […] The reported uncertainties were calculated from standard deviations between n=3 averaged G′ values of each condition. […]
# [2] = Rheometer tensile strength T′ (adhesive force) test of HyStem hydrogels; assay type: physicochemical; conditions: Hystem + 0.50% w/v compared to Hystem + 1.0% w/v
# Method: as §1, with “For rheology or cell culture studies, the reaction mixture was placed into wells of an appropriate size and exposed to UV radiation (˜222 nm) for 1-5 seconds.” left out
# A Discovery HR-2 Rheometer (TA Instruments) with an 8 mm geometry was used to collect the tensile strength, T′, data. The test was designed to quantify the axial force (Pa) exerted by the hydrogel on the geometry as measured by the rheometer as the geometry is slowly raised over 2000 μm at 25° C. […]
# While not wishing to be bound to any particular theory, our assumption here is that increased intermolecular interactions are occurring with the C1.2. […] Again, to ensure standard conditions across all experiments, the geometry was lowered into the gels until a calibration force of 0.4N was detected. […]
compound,measurement,setting,value
C#CCNC(=O)Cc1ccc(O)c(O)c1 [Compound C1.2],shear elastic modulus G′,[1],4.125×10^3+/7.406×10^1 Pa
same,"increase in T′, 0.50% w/v to 1.0% w/v",[2],7.48×10^2+/−1.13×101 Pa
